## Library screen at single concentrations

A: 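Whole-cell growth test on Mycobacterium tuberculosis, read after 3 days in glucose-containing 7H9 medium; the read-out is not stated. Concentration: 50 µM. Direction is inferred from retests: higher values go with more growth inhibition. About 69,000 compounds were tested under these conditions; 1.1% (about 760) showed 50% or more at least once.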
B: 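Growth of Mycobacterium tuberculosis over 4 days (cholesterol / DPPC medium with tyloxapol); the read-out is not stated. Compounds at 50 µM. Direction is inferred from retests: higher values go with more growth inhibition. Of about 69,000 compounds tested this way, about 370 (0.54%) reached 50% or more in at least one test.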

The filed quantity is “Percent Effect” (%).
The controls that fix the scale are not given in the record; negative values are as filed.
Compounds were drawn at random from those tested, without regard to their results.
Two or more numbers in one place are separate tests of the same structure; such repeats can differ widely.

O=C(NCC(F)(F)F)C1CCC(=O)N(C2CCCC2)C1 (centres unmarked) gave A: -18.83%; B: -0.7655%. For Cc1nc(C)n(CC2CCCN(CCc3ccncc3)C2)n1 (centres unmarked) the result was A: -5.176% and 16.85%; B: -4.092%. For COc1ccc(C(=O)C2CCCN(c3cc(N)ncn3)C2)c(C)c1 (centres unmarked) the result was A: 34.03%; B: 2.637%. Result for O=c1[nH]c2nc(NCC3CCCO3)ncc2c(=O)n1-c1ccc(F)cc1 (centres unmarked) was A: -11.52%; B: 1.34%.

Result for Cc1ncc(CNC(=O)Cc2ccc(Cl)cc2)c(C2CCCN2C)n1 (centres unmarked) was A: 5.136%; B: 7.304%. For CCN1CCNC(=O)C12CCN(S(=O)(=O)c1ccccc1)CC2 the result was A: 4.112%; B: -0.6964%. With COc1ccc(OC)c(C2CCN(C(=O)CCc3n[nH]c(N)n3)C2)c1 (centres unmarked) the screen gave A: 14.78%; B: 4.613%. Cc1ncccc1CNCC1CCN(CC(C)O)CC1 (centres unmarked) read A: -21.67%; B: -29.98%.

O=C(O)c1nnn(-c2ccc(OC(F)(F)F)cc2)c1-c1ccncc1 gave A: -6.173% and -0.7579%; B: -3.156%. O=C(c1cn(-c2ccccc2Cl)nn1)N1CCSCC1 gave A: 10.12%; B: 0.901%. With CN(CCc1ccccn1)CCc1nccs1 the screen gave A: -3.084%; B: -5.576%. Cn1cc(NS(=O)(=O)c2ccc(F)c(F)c2)ccc1=O read A: -4.885% and 1.456%; B: 9.405%.

For O=S(=O)(Nc1ncccc1F)c1cc(Cl)cc2c1OCC2 the result was A: 3.659% and 4.892%; B: 12.68%. With CCCc1cc(N2CCC(NCCc3ccc(O)cc3)CC2)nc(C)n1 the screen gave A: -25.25% and 0.6281%; B: 24.85%. Result for CCc1ccc(C2CCCN2C(=O)NCC(=O)NCC(C)C)o1 (centres unmarked) was A: -17.28% and 17.81%; B: -9.374%. CCn1c(Cn2cncn2)nnc1C1CCN(Cc2ccncc2)CC1 gave A: 1.409%; B: -2.44%.

CCc1noc(C(C)N2CCN(CC(=O)N3CCOCC3)CC2)n1 (centres unmarked) gave A: 5.549%; B: -2.263%. Result for CC(c1ccncn1)N(C)Cc1cc(O)c2cc(F)ccc2n1 (centres unmarked) was A: -4.692%; B: -5.76%. For O=C(CCNC(=O)c1ccoc1)NCc1ccccc1F the result was A: -11.48%; B: -15.19%. With CN(C)C(=O)c1cn[nH]c1C1(C)CCN(c2ncccn2)CC1 the screen gave A: -0.8617%; B: -8.239% and 7.264%.

For CCOc1cccc2c1OCC(C(=O)NS(=O)(=O)c1cncc(Br)c1)=C2 the result was A: -4.786%; B: -23.17%. Result for CC(C)OCCN1CCN(C(=O)c2cc(-n3cccn3)ccn2)CC1 was A: 6.923%; B: 5.376%. CCOCC(C)(C)NC(=O)Nc1cc(F)ccc1OC gave A: -24.32% and 2.126%; B: 18.79%. [H][C@@]12C[C@H](C(=O)Nc3cccnc3)[C@@]([H])(CN(CC(C)C)C1)O2 gave A: -11.84%; B: -9.347%.

COc1ccccc1CNC(=O)COc1ccc2c(c1)OCC2O (centres unmarked) gave A: 23.17%; B: 23.84%. COc1ccc(CC2CN(C(=O)c3coc(C)n3)CCO2)cc1 (centres unmarked) gave A: 28.27%; B: 1.711%. Result for OCC(CO)Nc1ccc2c(Cl)ccc(Cl)c2n1 was A: 63.05%; B: 32.59%. CC(=O)N1CCN(c2nc(C(F)(F)F)nc3sc(C)c(C)c23)CC1 gave A: 0.4253%; B: 4.157%.

Cc1cc(C)n(CCCNC(=O)[C@@H](C)NC(=O)OC(C)(C)C)n1 gave A: 1.404% and 8.065%; B: -8.26%. With c1ccc(-c2nnc3n2CCN(c2nc(C4CC4)ns2)C3)cc1 the screen gave A: -1.622% and 3.576%; B: 5.446%. CSCC(CCO)NC(=O)c1cccc(C)c1Cl (centres unmarked) read A: -0.2092%; B: 0.9005%. CCc1ccccc1-c1cc(OC)nc(N)n1 gave A: -15.77%; B: 16.69%.

COCC1CC2(CCN(C(=O)c3oc4ccccc4c3C)CC2)CO1 (centres unmarked) gave A: 29.25% and 2.837%; B: 19.65%.

Once more, the final 2:

{"smiles": "CCc1ccccc1-c1cc(OC)nc(N)n1", "A": -15.77, "B": 16.69}
{"smiles": "COCC1CC2(CCN(C(=O)c3oc4ccccc4c3C)CC2)CO1", "stereo": "centres unmarked", "A": "29.25 and 2.837", "B": 19.65}

The values are deposited in ChEMBL (CHEMBL3988442, “University of Dundee, Small-Polar-MMV Screening Library” (2021)).